Laboratory results: the supplement of paper PMC10849652
The list shows a part of the results.

Chains of the proteins cited; added tags and fusions are not shown. Lines headed by an entry give the natural chain unless they say otherwise; changes in a name come on top.
UniProt Q8IZ52: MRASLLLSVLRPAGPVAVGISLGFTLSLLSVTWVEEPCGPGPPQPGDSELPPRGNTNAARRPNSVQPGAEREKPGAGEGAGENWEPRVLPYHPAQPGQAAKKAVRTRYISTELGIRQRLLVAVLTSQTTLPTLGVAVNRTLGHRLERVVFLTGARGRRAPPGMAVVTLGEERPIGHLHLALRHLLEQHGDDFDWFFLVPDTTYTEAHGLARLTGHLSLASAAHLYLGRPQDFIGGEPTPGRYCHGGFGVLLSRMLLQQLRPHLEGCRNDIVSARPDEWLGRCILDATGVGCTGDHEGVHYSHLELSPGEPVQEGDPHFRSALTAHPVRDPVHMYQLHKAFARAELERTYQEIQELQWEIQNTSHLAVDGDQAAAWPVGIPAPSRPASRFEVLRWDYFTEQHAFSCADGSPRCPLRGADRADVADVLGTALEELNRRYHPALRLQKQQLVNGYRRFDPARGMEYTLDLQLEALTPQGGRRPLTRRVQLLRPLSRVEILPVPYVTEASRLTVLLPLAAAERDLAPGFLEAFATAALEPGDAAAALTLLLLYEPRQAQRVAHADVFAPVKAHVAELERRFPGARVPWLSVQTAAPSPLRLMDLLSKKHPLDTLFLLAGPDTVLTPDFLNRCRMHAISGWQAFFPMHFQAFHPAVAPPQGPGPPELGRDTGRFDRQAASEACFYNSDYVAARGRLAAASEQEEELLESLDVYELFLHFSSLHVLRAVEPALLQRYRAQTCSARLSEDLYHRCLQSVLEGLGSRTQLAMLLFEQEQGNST
UniProt Q9Y3D0: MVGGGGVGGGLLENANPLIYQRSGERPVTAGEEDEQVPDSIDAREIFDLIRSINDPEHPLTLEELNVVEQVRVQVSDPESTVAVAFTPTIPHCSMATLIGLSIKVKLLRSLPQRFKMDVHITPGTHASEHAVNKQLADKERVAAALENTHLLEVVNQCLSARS
UniProt Q15417: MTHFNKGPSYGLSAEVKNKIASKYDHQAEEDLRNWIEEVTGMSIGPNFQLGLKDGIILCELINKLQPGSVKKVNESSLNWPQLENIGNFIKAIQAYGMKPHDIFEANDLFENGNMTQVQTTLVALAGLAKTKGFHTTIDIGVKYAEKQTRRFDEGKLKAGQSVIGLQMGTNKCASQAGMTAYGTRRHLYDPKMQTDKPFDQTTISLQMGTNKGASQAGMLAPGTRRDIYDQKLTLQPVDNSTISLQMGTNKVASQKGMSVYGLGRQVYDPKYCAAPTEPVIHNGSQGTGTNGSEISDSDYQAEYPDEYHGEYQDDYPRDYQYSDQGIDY
UniProt Q96MX0: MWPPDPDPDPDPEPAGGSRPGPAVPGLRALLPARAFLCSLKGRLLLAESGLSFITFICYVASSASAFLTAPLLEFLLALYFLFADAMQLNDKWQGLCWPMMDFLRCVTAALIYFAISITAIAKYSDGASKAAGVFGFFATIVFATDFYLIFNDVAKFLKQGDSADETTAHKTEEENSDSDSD
UniProt Q9NPF2: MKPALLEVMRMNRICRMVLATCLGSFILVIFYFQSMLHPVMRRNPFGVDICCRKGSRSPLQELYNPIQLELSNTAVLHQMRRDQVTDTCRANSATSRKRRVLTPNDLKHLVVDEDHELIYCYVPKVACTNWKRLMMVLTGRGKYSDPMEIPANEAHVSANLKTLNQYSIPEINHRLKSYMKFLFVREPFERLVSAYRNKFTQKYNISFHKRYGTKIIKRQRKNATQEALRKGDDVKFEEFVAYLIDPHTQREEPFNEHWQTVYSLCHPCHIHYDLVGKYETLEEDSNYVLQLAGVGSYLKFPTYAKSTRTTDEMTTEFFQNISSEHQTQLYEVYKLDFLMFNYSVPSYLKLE
UniProt Q86X95: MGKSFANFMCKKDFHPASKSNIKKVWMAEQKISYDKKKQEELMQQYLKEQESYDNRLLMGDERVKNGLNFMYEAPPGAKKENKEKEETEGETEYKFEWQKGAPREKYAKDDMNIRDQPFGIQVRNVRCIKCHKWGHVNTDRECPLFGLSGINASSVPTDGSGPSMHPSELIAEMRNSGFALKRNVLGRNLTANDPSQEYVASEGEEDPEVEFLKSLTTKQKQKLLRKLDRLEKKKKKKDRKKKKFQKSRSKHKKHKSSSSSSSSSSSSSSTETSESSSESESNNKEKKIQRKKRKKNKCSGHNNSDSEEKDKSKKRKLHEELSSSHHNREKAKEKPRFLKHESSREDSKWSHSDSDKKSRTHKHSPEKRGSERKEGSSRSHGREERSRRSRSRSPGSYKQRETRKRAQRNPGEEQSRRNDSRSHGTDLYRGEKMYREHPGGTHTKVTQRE
UniProt P30622: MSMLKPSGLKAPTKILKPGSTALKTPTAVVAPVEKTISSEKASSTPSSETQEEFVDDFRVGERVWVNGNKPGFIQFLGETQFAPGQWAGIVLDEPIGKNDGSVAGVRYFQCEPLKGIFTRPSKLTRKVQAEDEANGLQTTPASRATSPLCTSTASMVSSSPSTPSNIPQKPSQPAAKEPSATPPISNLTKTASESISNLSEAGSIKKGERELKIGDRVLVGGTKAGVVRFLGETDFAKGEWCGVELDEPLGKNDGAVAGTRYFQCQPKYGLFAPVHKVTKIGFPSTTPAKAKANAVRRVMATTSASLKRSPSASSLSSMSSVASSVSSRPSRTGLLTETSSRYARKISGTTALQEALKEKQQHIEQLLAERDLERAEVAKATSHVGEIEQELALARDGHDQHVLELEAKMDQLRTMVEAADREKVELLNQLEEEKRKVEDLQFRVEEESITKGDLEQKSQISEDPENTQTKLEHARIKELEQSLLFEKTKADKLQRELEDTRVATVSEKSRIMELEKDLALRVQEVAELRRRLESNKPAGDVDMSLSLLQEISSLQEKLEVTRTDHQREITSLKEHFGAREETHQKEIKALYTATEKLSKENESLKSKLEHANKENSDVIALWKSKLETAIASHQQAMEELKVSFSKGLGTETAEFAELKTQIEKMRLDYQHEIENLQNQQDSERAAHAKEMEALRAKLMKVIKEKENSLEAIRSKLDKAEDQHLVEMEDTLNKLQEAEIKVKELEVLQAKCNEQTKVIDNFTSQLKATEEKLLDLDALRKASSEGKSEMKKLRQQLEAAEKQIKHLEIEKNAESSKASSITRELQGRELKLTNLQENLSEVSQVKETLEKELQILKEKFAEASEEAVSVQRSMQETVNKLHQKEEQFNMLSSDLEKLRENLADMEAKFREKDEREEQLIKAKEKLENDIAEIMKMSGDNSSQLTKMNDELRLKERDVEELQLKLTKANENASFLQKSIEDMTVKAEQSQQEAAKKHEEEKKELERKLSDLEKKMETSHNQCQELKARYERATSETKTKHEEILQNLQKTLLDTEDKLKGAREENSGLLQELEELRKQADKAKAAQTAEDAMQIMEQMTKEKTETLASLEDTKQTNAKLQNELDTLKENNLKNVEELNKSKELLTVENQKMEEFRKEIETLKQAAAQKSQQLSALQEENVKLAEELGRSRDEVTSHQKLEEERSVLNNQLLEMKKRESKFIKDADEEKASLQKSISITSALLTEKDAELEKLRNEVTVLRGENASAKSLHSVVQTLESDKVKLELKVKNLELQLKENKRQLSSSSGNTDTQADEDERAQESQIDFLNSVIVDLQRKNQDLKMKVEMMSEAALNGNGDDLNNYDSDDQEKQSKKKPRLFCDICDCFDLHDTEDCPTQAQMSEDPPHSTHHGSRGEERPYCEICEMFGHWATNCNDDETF
UniProt Q9P003: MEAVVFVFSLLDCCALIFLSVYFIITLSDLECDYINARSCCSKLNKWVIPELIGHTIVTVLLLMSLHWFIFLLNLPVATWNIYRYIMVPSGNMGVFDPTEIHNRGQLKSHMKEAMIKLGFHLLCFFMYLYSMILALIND
UniProt P33552, whole entry, looked up: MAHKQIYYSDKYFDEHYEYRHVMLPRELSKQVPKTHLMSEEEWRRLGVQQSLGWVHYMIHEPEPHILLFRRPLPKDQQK
UniProt Q9Y4C5: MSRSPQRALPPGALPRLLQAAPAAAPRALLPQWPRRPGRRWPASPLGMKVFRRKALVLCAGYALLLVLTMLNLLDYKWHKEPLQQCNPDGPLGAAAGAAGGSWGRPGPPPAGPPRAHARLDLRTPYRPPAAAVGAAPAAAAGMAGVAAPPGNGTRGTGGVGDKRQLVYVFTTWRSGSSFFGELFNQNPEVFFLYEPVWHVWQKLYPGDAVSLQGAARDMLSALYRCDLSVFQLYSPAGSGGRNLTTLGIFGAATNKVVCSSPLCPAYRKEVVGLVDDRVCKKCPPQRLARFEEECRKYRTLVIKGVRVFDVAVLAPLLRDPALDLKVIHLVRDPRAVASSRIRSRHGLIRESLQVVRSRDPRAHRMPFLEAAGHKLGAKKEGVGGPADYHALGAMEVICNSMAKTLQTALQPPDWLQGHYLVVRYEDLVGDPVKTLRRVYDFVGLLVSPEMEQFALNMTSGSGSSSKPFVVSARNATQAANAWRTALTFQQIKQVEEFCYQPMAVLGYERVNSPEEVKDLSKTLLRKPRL
UniProt O94985: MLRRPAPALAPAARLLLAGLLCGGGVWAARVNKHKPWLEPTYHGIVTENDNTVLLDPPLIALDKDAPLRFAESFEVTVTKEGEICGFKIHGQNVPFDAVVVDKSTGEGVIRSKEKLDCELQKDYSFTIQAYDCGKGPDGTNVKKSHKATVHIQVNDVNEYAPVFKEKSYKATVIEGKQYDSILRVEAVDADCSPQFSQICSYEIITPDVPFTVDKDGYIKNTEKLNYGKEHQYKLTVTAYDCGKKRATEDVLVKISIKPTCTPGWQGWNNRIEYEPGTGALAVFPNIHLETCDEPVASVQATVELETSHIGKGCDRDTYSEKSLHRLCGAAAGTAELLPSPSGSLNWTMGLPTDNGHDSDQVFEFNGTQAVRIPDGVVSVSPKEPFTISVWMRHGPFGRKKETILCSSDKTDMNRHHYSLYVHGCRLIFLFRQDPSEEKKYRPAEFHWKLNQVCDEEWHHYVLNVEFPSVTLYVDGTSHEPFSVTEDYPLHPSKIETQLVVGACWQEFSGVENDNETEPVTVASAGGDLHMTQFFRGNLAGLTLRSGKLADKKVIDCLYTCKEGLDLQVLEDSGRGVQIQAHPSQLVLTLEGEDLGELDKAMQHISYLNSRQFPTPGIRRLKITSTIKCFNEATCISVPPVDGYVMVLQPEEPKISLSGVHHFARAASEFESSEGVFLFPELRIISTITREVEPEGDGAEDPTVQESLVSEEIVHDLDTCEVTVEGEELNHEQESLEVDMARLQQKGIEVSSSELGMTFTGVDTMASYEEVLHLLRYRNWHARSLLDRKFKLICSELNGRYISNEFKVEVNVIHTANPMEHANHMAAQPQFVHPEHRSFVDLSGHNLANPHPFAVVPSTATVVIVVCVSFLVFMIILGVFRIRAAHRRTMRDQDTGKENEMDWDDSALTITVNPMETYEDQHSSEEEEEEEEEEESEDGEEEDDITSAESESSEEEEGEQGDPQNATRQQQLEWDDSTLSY
UniProt Q14011: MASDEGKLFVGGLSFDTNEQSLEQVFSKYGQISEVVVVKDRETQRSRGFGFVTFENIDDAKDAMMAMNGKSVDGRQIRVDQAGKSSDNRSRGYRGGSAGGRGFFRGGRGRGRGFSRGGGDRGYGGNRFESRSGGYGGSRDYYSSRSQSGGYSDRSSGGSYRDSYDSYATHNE
UniProt Q96NY7: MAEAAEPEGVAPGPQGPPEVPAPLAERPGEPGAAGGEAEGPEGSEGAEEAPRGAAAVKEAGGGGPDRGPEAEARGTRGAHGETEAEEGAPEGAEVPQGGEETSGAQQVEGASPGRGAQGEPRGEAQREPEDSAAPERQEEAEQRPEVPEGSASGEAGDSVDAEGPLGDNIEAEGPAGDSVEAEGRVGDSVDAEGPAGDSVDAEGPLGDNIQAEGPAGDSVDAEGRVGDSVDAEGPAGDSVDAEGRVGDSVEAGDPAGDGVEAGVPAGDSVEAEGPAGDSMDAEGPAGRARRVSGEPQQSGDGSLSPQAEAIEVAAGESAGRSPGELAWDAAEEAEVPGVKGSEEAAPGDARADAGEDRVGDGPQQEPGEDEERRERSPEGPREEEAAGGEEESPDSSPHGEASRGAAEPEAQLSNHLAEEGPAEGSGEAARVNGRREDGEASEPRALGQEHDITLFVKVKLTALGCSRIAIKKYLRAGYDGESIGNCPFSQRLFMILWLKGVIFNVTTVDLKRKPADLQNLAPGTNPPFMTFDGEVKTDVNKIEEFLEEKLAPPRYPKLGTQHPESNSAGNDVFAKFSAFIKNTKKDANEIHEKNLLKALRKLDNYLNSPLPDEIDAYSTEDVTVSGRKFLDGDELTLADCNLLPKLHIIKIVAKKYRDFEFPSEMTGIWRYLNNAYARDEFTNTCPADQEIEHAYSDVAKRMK
UniProt Q8IZR5: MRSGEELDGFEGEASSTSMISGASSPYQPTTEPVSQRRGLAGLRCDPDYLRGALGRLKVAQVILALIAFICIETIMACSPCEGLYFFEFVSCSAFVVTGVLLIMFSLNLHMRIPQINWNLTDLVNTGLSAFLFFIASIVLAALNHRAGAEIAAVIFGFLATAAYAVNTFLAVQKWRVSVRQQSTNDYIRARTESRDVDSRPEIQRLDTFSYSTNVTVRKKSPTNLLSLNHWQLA

Compound: Cn1cncc1[C@@](N)(c1ccc(Cl)cc1)c1ccc2c(c1)c(-c1cccc(Cl)c1)cc(=O)n2C [tipifarnib]
Assay: log2 fold change, soluble protein after heating vs DMSO (PISA); higher = thermal stabilisation; K562 cells, 10 uM, 30 min; active = over 0.2 and 3.5 SD of the protein, either way, in both replicates (recomputed)
Summary of the method: (§1)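 Thermal stability values are relative to control samples and come from duplicates. They are expressed as log2 fold changes. For measurement, K562 cells (2×10^6 cells/mL) received 10 μM compound for 30 min, and aliquots were heated for 3 min over 48°C-58°C, pooled, and extracted at 4°C in PBS with 0.5% NP-40. Soluble protein, the supernatant after 21,000xg for 90 min, was quantified by TMTpro 16plex LC-MS/MS with equalised channel sums.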

| Target | log2 fold change |
| --- | --- |
| CHPF (UniProt Q8IZ52) | inactive: 0.053 |
| CIAO2B (UniProt Q9Y3D0) | inactive: 0.097 |
| CNOT8 (UniProt Q9UFF9) | inactive: 0.015 |
| CMPK2 (UniProt Q5EBM0) | inactive: -0.016 |
| CNN3 (UniProt Q15417) | inactive: -0.107 |
| CLASP2 (UniProt O75122) | inactive: 0.045 |
| CMTM3 (UniProt Q96MX0) | inactive: 0.098 |
| CLN3 (UniProt Q13286) | inactive: 0.1 |
| COIL (UniProt P38432) | inactive: 0.134 |
| COL15A1 (UniProt P39059) | inactive: 0 |
| CHST11 (UniProt Q9NPF2) | inactive: -0.012 |
| CIR1 (UniProt Q86X95) | inactive: 0.223 |
| CMTM6 (UniProt Q9NX76) | inactive: -0.11 |
| CLIP1 isoform 2 (UniProt P30622) | inactive: 0.021 |
| CHST10 (UniProt O43529) | inactive: 0.05 |
| CNIH4 (UniProt Q9P003) | inactive: -0.118 |
| CKS2 (UniProt P33552) | inactive: -0.047 |
| CHST2 (UniProt Q9Y4C5) | inactive: -0.031 |
| CLN6 (UniProt Q9NWW5) | inactive: -0.053 |
| CHURC1-FNTB (UniProt B4DL54) | inactive: 0.031 |
| CLSTN1 (UniProt O94985) | inactive: 0.103 |
| CLEC3B (UniProt P05452) | inactive: -0.045 |
| CIRBP (UniProt Q14011) | inactive: 0.067 |

Compound: FC(F)(F)c1ccc(/C=C/c2nc(COc3ccc(CCCCn4ccnn4)cc3)co2)cc1 [mubritinib]
Assay: as above
Summary of the method: as §1

| Target | log2 fold change |
| --- | --- |
| CHPF (UniProt Q8IZ52) | inactive: -0.054 |
| CIAO2B (UniProt Q9Y3D0) | inactive: -0.129 |
| CNOT8 (UniProt Q9UFF9) | inactive: 0.106 |
| CMPK2 (UniProt Q5EBM0) | inactive: 0.014 |
| CNN3 (UniProt Q15417) | inactive: 0.06 |
| CLASP2 (UniProt O75122) | inactive: 0.027 |
| CMTM3 (UniProt Q96MX0) | inactive: -0.052 |
| CLN3 (UniProt Q13286) | inactive: 0.09 |
| CLINT1 (UniProt Q14677) | inactive: -0.007 |
| COL15A1 (UniProt P39059) | inactive: 0 |
| CHST11 (UniProt Q9NPF2) | inactive: -0.064 |
| CLIC6 (UniProt Q96NY7) | inactive: 0.025 |
| CIR1 (UniProt Q86X95) | inactive: -0.113 |
| CMTM6 (UniProt Q9NX76) | inactive: 0.014 |
| CLIP1 isoform 2 (UniProt P30622) | inactive: 0.037 |
| CMTM4 (UniProt Q8IZR5) | inactive: 0.101 |
| CHST10 (UniProt O43529) | inactive: 0.064 |
| CNIH4 (UniProt Q9P003) | inactive: 0.048 |
| CKS2 (UniProt P33552) | inactive: 0.325 |
| CMYA5 (UniProt Q8N3K9) | inactive: -0.017 |
| CMIP (UniProt Q8IY22) | inactive: -0.147 |
| CHST2 (UniProt Q9Y4C5) | inactive: 0.003 |
| CLPTM1L (UniProt G5E9Z2) | inactive: 0.047 |
| CLN6 (UniProt Q9NWW5) | inactive: 0.013 |
| CHURC1-FNTB (UniProt B4DL54) | inactive: -0.079 |
| CNOT11 (UniProt Q9UKZ1) | inactive: -0.066 |
| CLSTN1 (UniProt O94985) | inactive: 0.023 |
| CLEC3B (UniProt P05452) | inactive: -0.358 |
| CIRBP (UniProt Q14011) | inactive: -0.034 |
